Assay results from PubChem BioAssay AID2551 (National Center for Advancing Translational Sciences (NCATS), 2010).
In all, about 310,000 compounds went through this assay and about 17,000 (5.5%) were called active. Inconclusive results, whose numbers are uncertain, are shown with a selection of clear calls. The call rests on the fitted dose curve; in most records, active means well fitted inhibition curve with a large enough effect; inconclusive means small, poorly fitted or top-dose-only effect, or effect the other way; inactive means no such curve, though single readings can be large or run the other way. Potencies of inconclusive entries are doubtful fits and often do not repeat.

Chains of the proteins cited; added tags and fusions are not shown. Lines headed by an entry give the natural chain unless they say otherwise; changes in a name come on top.
UniProt P51450: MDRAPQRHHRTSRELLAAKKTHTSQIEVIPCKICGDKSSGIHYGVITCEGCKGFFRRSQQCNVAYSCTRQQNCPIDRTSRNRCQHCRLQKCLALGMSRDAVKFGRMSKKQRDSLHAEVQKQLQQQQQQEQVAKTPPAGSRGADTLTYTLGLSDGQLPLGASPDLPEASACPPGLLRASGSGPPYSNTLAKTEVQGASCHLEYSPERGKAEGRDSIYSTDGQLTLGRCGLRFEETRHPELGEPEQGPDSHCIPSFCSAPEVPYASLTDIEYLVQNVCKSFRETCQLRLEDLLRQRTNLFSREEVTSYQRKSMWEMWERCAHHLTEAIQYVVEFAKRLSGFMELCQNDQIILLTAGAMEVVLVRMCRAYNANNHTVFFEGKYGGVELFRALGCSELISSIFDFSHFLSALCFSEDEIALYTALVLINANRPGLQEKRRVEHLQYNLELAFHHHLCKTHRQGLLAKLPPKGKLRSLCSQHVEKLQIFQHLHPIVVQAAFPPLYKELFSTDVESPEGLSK

The compounds below were run against Nuclear receptor ROR-gamma (Mus musculus) (UniProt P51450) (assay: qHTS for inhibitors of ROR gamma transcriptional activity). Conditions: Drosophila S2 Gal4-RORgamma UAS-luciferase reporter, 20 h; activity change, negative = inhibition: at 53.6 µM (top of the series).
In short: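 Luminescence from a UAS-regulated Photinus luciferase reporter in stably transfected Drosophila Schneider cells is measured; decreased signal marks ROR gamma inhibition. Fusion expression is induced by 700 uM copper sulfate for 20 hr.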
Further: nearly all actives have a fitted effect of over 60% in size.
On the % scale 0 is the no-effect control and ±100 the full control effect; potency means the concentration at half of the fitted maximal effect.

Activity change, negative = inhibition, inactive:
CCc1cc(C(=O)OC)c(NC(=O)c2ccoc2C)s1 -0.0873%
Cc1nnn(C23CC4CC(CC(C4)C2)C3)n1 -20.7%
O=C(C[N+]1(CC#Cc2ccccc2)CCCCC1)c1ccccc1 0.828%
CC(C)(C)n1nc2c(c1NC(=O)c1ccccc1S(=O)(=O)C(F)F)CS(=O)(=O)C2 -30.5%
Nc1nc2c([nH]c(=O)n2C2OC(CO)C(O)C2O)c(=O)[nH]1 (stereo not given) 4.66%

Potency, active:
Cc1cc(O)ccc1N=Cc1c(C(F)(F)F)[nH][nH]c1=O 11.2 µM
CC1(CC(=O)N/N=C/c2cc(Br)c(O)cc2O)OCCO1 10 µM
CCNC(=S)N/N=C(\C)c1ccc2c(c1)OCCO2 2.82 µM

Potency, inconclusive:
COCCCN=C1NN=C(c2cc(C)n(Cc3ccccc3Cl)c2C)CS1 15.8 µM [inhibitor, single point]
CCOC(=O)c1sc(Nc2nc3c(OC)cccc3s2)nc1C 22.4 µM [inhibitor, single point]
O=C(Nc1nc2ccccc2s1)c1cccc(S(=O)(=O)N2CCc3ccccc32)c1 5.01 µM [inhibitor, partial curve, poor fit]
O=C(COC(=O)CCc1nc2ccccc2n1-c1ccccc1)Nc1ccc(N2CCCCC2)cc1 12.6 µM [activator, single point]
Cc1ccc(N(CC(=O)NC(C)C)C(=O)CCC(=O)Nc2nccs2)cc1 4.47 µM [activator, partial curve]
O=C(c1ccc(Cn2c(=S)[nH]c3cc4c(cc3c2=O)OCO4)cc1)N1CCN(c2ncccn2)CC1 8.91 µM [inhibitor, partial curve]
CC(=O)Nc1ccc(S(=O)(=O)N2CCN(c3nc(NC4CCCC4)c4ccccc4n3)CC2)cc1 35.5 µM [inhibitor, single point]
O=C(CSc1nc(-c2ccco2)cc(C(F)(F)F)n1)Nc1ccc(C(=O)N2CCCCC2)cc1 35.5 µM [inhibitor, single point]
CCOC(=O)c1ccc(N)cc1 7.08 µM [activator, partial curve]
CC(C(=O)NC1CCCc2ccccc21)N1CCN(c2ccc(F)cc2)CC1 (stereo not given) 31.6 µM [activator, single point]
COc1ccc(CCNC(=O)Cc2ccc(OCc3ccccc3)c(OC)c2[N+](=O)[O-])cc1OCc1ccccc1 0.794 µM [inhibitor, partial curve, poor fit]
Cc1cc(C)cc(NC(=O)CSc2nc3c(oc4ccccc43)c(=O)n2-c2ccccc2)c1 0.447 µM [activator, full curve]

Three entries from above, ordered by SMILES length, descending.
Potency, inconclusive:
O=C(c1ccc(Cn2c(=S)[nH]c3cc4c(cc3c2=O)OCO4)cc1)N1CCN(c2ncccn2)CC1 8.91 µM [inhibitor, partial curve]
O=C(CSc1nc(-c2ccco2)cc(C(F)(F)F)n1)Nc1ccc(C(=O)N2CCCCC2)cc1 35.5 µM [inhibitor, single point]
CC(C(=O)NC1CCCc2ccccc21)N1CCN(c2ccc(F)cc2)CC1 (stereo not given) 31.6 µM [activator, single point]
